Results from doi:10.1101/2023.02.27.528078.
Like-named read-outs stand apart in the source and are kept apart here. No constants are given. Whether binding was seen depends on the method and setting. Binding seen in cells or lysates may run through a third protein. Some binding calls cover weakened binding; strength is not graded here.

By UniProt entry, the sequences of proteins in these tests, tags left out. Where a name states a change or a piece, a line headed by the entry shows the natural chain unless it says otherwise. Chains listed by the source or under a name are the forms on record and can include a tag or linker.
UniProt P60953: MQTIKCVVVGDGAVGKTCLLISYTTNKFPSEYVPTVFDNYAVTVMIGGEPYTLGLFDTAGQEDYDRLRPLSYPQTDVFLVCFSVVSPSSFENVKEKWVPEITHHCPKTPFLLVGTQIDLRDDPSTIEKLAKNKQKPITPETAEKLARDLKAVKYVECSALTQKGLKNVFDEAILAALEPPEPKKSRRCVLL
GFP-tagged constitutively active (CA) V12 CDC42b (brain CDC42 isoform) (P60953, form named): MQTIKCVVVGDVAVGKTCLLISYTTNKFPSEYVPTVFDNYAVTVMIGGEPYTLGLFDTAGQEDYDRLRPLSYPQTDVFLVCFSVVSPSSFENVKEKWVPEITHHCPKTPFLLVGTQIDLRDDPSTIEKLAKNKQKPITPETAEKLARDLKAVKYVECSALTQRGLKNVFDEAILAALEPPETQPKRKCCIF
GFP-tagged constitutively active (CA) V12 CDC42u (ubiquitous CDC42 isoform) (P60953, form named): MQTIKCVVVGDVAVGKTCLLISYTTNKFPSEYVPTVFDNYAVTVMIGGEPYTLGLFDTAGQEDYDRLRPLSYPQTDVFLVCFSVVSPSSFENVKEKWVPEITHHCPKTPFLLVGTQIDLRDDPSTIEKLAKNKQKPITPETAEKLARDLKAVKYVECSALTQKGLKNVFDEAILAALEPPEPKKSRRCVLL
UniProt O00401: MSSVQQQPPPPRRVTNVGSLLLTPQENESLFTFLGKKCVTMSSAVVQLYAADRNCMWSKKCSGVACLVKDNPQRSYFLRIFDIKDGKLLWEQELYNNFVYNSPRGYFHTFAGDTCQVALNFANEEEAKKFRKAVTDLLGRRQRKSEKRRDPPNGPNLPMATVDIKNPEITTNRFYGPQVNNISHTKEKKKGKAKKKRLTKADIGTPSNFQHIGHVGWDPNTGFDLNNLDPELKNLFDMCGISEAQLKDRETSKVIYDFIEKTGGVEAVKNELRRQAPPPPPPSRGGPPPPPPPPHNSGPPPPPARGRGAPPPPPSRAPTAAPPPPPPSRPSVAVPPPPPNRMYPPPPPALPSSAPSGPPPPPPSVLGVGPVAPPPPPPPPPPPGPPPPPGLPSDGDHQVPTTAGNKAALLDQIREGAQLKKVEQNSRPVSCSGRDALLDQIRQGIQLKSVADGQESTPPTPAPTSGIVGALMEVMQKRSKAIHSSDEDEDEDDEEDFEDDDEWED

B1: PKCζ (enzyme, UniProt Q05513 1-592)
chain: MPSRTGPKMEGSGGRVRLKAHYGGDIFITSVDAATTFEELCEEVRDMCRLHQQHPLTLKWVDSEGDPCTVSSQMELEEAFRLARQCRDEGLIIHVFPSTPEQPGLPCPGEDKSIYRRGARRWRKLYRANGHLFQAKRFNRRAYCGQCSERIWGLARQGYRCINCKLLVHKRCHGLVPLTCRKHMDSVMPSQEPPVDDKNEDADLPSEETDGIAYISSSRKHDSIKDDSEDLKPVIDGMDGIKISQGLGLQDFDLIRVIGRGSYAKVLLVRLKKNDQIYAMKVVKKELVHDDEDIDWVQTEKHVFEQASSNPFLVGLHSCFQTTSRLFLVIEYVNGGDLMFHMQRQRKLPEEHARFYAAEICIALNFLHERGIIYRDLKLDNVLLDADGHIKLTDYGMCKEGLGPGDTTSTFCGTPNYIAPEILRGEEYGFSVDWWALGVLMFEMMAGRSPFDIITDNPDMNTEDYLFQVILEKPIRIPRFLSVKASHVLKGFLNKDPKERLGCRPQTGFSDIKSHAFFRSIDWDLLEKKQALPPFQPQITDDYGLDNFDTQFTSEPVQLTPDDEDAIKRIDQSEFEGFEYINPLLLSTEESV

Tests used:
Assay in all cases: co-IP
[1] = biological target: GFP-tagged constitutively active (CA) V12 CDC42b (brain CDC42 isoform) (UniProt P60953)
[2] = biological target: GFP-tagged constitutively active (CA) V12 CDC42u (ubiquitous CDC42 isoform) (UniProt P60953)
[3] = biological target: GFP-tagged constitutively active (CA) V12 CDC42b (brain CDC42 isoform) (UniProt P60953); remark: listed apart in the source
[4] = biological target: GFP-tagged constitutively active (CA) V12 CDC42u (ubiquitous CDC42 isoform) (UniProt P60953); remark: listed apart in the source

Molecule | binding [1] | binding [2] | binding [3] | binding [4]
N-WASP (from UniProt O00401 1-505) | binds | binds |  | 
B1 |  |  | binds | binds
